According to paper PMC9525119:
No constants are given. Whether binding was seen depends on the method and setting. Binding seen in cells or lysates may run through a third protein. Some results given as binding are weak or reduced against the parent protein; the word gives no strength.

Chains of the proteins cited; added tags and fusions are not shown.
UniProt Q8BG87: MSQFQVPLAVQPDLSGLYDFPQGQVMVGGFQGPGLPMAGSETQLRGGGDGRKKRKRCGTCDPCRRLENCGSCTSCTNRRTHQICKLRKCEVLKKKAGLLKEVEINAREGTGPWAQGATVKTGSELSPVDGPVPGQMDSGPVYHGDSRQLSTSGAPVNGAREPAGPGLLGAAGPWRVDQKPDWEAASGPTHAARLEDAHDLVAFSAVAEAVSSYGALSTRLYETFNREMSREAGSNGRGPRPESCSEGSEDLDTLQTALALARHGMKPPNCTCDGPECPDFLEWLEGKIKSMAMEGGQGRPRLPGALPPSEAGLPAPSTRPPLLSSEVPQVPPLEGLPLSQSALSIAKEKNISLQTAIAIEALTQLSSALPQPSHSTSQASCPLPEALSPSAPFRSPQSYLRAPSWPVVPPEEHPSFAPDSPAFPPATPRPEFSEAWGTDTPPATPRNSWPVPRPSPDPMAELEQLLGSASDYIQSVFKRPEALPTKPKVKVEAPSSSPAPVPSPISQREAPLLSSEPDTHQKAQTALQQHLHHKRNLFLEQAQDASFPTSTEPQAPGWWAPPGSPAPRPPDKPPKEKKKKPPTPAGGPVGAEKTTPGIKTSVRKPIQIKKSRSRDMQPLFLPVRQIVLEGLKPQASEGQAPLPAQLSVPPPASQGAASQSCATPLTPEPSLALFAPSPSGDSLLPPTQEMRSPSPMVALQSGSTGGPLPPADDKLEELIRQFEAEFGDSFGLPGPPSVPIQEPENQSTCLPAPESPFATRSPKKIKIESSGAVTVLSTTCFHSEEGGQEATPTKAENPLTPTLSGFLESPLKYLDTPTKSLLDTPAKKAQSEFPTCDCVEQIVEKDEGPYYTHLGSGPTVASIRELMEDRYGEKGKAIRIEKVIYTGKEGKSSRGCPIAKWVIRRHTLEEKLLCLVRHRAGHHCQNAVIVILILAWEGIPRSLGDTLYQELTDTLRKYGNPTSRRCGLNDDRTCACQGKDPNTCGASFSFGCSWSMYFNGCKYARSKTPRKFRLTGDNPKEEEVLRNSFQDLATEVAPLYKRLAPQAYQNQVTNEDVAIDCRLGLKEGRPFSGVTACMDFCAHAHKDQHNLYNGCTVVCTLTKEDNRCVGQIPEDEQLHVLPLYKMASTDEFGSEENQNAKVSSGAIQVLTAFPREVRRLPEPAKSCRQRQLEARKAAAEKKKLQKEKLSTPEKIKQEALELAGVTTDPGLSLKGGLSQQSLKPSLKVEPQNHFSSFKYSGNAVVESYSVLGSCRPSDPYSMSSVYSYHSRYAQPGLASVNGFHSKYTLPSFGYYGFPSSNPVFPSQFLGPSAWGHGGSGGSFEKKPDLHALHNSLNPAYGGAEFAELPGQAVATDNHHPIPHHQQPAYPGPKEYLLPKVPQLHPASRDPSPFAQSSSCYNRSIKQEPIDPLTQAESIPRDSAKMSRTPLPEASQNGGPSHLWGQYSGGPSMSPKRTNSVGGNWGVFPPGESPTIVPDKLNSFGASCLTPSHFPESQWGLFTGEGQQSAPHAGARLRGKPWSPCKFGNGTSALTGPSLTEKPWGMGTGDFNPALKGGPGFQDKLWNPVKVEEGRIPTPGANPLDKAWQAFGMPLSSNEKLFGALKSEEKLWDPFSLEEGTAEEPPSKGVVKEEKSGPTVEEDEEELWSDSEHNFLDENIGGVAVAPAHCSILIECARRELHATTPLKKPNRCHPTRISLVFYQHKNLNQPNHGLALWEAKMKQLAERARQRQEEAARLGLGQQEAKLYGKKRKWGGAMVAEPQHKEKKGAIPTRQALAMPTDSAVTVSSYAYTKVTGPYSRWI
UniProt Q6NZM9: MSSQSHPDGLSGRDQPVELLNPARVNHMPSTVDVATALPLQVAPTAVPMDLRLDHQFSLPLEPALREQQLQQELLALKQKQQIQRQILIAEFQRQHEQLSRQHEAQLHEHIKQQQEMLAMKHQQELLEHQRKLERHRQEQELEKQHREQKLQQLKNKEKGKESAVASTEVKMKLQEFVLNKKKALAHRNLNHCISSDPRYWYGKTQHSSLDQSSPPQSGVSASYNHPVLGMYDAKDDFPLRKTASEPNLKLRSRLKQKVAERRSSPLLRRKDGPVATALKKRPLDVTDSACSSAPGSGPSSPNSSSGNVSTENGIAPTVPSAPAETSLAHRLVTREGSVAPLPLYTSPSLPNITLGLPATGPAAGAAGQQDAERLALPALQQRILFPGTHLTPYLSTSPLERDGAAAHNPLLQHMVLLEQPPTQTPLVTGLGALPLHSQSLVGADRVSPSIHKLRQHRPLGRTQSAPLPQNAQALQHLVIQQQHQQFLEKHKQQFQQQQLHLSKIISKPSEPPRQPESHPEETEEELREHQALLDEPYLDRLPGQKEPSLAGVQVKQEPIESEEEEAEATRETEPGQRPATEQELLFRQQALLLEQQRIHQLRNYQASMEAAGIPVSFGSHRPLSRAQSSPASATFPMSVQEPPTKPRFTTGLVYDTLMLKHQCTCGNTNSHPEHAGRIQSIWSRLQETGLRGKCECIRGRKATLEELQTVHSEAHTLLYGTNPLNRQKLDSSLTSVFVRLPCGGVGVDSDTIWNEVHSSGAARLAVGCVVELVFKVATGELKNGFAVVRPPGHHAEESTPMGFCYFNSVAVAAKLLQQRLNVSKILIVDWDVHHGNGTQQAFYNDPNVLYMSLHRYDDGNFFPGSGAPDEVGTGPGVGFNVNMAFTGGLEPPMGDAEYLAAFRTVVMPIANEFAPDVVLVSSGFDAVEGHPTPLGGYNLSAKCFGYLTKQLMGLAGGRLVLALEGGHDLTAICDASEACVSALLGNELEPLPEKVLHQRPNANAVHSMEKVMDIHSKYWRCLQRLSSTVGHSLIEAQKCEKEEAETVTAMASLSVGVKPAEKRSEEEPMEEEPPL
UniProt P42227: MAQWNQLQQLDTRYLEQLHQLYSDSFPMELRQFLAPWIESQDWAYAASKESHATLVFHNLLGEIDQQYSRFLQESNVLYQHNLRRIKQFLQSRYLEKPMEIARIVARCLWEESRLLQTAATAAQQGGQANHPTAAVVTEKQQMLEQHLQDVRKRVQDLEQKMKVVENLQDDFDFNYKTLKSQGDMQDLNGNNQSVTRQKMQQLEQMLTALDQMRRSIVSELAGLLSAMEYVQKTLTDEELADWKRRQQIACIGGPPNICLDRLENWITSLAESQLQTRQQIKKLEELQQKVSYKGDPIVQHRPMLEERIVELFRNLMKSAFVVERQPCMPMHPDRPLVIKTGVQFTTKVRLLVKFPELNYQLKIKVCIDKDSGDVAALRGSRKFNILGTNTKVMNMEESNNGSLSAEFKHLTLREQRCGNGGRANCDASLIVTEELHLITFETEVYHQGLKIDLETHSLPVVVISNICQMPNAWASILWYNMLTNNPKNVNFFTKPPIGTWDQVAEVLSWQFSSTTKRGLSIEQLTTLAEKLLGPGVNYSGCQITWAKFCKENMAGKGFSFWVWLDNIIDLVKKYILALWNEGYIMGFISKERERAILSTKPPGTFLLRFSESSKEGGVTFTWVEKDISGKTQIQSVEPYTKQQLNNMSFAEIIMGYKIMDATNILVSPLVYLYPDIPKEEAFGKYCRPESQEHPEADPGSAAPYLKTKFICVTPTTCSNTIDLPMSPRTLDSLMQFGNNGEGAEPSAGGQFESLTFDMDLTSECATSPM
UniProt O43151: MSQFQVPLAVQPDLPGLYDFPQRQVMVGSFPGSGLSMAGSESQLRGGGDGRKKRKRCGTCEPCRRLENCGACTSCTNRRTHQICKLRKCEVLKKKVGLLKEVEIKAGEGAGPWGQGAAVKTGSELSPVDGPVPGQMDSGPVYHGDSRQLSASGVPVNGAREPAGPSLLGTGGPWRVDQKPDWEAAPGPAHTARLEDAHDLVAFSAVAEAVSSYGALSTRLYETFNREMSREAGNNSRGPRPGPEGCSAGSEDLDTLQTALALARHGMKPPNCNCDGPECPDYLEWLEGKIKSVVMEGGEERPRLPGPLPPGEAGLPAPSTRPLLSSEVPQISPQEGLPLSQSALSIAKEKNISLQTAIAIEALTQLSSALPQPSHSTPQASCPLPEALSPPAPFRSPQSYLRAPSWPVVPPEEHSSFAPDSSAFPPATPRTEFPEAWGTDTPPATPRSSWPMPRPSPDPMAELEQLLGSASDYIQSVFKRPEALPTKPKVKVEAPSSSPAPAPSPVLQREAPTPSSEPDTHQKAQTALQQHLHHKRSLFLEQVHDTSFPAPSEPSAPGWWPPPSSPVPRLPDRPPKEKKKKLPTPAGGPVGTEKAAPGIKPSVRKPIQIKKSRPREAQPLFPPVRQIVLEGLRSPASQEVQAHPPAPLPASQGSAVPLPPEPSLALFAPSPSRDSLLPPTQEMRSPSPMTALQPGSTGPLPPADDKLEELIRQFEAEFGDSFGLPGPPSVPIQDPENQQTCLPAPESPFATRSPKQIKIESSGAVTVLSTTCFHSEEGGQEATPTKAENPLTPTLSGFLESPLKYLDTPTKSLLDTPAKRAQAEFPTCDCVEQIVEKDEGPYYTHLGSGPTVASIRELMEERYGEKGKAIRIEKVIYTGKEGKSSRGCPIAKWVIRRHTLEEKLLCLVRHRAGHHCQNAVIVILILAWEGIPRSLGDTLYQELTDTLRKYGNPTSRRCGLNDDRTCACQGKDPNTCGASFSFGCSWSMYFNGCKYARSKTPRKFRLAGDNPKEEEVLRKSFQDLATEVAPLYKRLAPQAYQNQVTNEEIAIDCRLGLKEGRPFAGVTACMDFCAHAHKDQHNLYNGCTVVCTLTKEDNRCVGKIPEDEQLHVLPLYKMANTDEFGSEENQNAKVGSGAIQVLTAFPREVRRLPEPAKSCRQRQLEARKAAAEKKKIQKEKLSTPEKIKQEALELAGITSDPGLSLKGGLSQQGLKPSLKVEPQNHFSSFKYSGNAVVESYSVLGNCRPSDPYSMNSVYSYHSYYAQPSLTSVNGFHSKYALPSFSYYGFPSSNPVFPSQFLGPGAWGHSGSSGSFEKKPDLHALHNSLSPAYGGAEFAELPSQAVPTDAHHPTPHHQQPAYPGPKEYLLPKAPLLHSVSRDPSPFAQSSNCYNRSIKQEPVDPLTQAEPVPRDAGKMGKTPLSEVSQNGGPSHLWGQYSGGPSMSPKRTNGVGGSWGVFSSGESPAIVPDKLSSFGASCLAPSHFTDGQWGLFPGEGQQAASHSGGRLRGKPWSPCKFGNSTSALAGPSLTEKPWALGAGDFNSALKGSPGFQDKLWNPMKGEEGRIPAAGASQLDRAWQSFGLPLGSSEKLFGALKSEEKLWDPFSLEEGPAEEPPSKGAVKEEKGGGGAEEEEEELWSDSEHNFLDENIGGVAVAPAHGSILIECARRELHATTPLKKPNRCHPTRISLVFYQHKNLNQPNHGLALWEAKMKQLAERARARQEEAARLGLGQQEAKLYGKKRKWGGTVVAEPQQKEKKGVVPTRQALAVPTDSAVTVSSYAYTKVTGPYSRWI
UniProt P40763: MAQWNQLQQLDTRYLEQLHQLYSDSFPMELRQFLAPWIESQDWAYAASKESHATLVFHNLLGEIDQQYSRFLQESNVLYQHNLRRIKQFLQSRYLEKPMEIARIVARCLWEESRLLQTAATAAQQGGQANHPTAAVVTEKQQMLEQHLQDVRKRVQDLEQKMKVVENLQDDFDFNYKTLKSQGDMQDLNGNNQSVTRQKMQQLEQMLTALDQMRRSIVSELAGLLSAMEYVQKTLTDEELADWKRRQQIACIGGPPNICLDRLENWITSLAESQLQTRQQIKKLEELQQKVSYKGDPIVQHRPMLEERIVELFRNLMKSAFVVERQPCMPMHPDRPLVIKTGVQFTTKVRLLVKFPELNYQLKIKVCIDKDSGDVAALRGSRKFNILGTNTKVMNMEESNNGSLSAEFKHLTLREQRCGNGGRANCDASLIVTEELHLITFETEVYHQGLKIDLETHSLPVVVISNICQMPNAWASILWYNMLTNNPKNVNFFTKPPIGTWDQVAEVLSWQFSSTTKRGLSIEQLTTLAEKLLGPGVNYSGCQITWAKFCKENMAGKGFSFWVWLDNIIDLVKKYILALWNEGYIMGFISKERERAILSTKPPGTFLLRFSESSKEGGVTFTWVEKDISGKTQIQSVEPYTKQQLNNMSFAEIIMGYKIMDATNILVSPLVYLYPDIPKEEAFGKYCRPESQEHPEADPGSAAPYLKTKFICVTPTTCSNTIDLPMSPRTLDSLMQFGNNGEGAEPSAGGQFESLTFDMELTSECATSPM

target: TET3 (mouse) (mouse (endogenous in ARC tissue and GT1-7 cells)) (UniProt Q8BG87); assay: co-IP; anti-TET3 (rabbit polyclonal) on Protein G Dynabeads; lysate of mouse GT1-7 cells treated with Lept H (1 × 10^-8 M) for 2 hours; 0.5% Triton X-100, NaCl to 200 mM, 4°C, 4 hours; immunoblot

| binding | Substance |
| --- | --- |
| binds | HDAC4 (mouse) (from UniProt Q6NZM9 1-1076) |
| binds | NCOR1 (mouse) (from UniProt Q60974 1-2453) |
| binds | STAT3 (mouse) (from UniProt P42227 1-770) |
| binds | p-STAT3 (mouse STAT3 phosphorylated at Tyr705) (from UniProt P42227 1-770) |

target: TET3 (human) (human (endogenous in SH-SY5Y)) (UniProt O43151); assay: co-IP; anti-TET3 (rabbit polyclonal) on Protein G Dynabeads; lysate of human SH-SY5Y cells treated with Lept H (1 × 10^-8 M) for 2 hours; 0.5% Triton X-100, NaCl to 200 mM, 4°C, 4 hours; immunoblot

| binding | Substance |
| --- | --- |
| binds | NCOR1 (human) (from UniProt O75376 1-2440) |
| binds | STAT3 (human) (from UniProt P40763 1-770) |
| binds | p-STAT3 (human STAT3 phosphorylated at Tyr705) (from UniProt P40763 1-770) |

target: TET3 (mouse) (mouse (endogenous in ARC tissue and GT1-7 cells)) (UniProt Q8BG87); assay: co-IP; anti-TET3 (rabbit polyclonal) on Protein G Dynabeads; lysate of ARCs from mice fasted 22 hours and treated with leptin 2 hours; 0.5% Triton X-100, NaCl to 200 mM, 4°C, 4 hours; immunoblot; preimmune IgG as control

| binding | Substance |
| --- | --- |
| binds | HDAC4 (mouse) (from UniProt Q6NZM9 1-1076) |
| binds | NCOR1 (mouse) (from UniProt Q60974 1-2453) |
| binds | STAT3 (mouse) (from UniProt P42227 1-770) |
| binds | p-STAT3 (mouse STAT3 phosphorylated at Tyr705) (from UniProt P42227 1-770) |
